# Experimental data reported in PubChem BioAssay (EPA / NIEHS).
# Sequences of proteins named here, by UniProt entry; tags and fusion partners are left off. A change or cut given only in a name is not applied to a line headed by its entry.
# UniProt P13631, whole entry, looked up: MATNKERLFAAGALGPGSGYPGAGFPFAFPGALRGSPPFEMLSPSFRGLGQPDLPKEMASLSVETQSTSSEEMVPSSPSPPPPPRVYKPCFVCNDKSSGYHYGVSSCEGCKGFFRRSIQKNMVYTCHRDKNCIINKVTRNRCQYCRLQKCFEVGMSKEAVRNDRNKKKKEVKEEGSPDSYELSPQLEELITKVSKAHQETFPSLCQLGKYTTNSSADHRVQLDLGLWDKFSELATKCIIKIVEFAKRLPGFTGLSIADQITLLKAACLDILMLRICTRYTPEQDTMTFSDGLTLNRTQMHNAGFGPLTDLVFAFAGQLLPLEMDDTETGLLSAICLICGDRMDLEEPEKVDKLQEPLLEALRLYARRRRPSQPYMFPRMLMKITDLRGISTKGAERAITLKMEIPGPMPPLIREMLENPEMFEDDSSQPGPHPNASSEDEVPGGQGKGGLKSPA
# UniProt Q92753: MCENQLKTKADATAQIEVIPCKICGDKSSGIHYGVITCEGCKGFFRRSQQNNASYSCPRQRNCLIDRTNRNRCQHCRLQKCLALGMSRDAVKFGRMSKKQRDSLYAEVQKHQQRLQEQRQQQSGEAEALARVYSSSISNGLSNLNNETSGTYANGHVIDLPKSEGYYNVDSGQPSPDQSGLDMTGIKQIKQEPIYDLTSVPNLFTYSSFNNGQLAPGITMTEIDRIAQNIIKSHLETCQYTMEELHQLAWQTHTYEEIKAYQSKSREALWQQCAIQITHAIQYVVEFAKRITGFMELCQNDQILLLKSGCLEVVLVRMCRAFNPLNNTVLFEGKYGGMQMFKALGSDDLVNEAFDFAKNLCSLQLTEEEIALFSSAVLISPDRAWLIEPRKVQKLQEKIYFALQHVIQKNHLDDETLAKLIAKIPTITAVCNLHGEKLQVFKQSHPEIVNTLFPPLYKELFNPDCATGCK
# UniProt P51449: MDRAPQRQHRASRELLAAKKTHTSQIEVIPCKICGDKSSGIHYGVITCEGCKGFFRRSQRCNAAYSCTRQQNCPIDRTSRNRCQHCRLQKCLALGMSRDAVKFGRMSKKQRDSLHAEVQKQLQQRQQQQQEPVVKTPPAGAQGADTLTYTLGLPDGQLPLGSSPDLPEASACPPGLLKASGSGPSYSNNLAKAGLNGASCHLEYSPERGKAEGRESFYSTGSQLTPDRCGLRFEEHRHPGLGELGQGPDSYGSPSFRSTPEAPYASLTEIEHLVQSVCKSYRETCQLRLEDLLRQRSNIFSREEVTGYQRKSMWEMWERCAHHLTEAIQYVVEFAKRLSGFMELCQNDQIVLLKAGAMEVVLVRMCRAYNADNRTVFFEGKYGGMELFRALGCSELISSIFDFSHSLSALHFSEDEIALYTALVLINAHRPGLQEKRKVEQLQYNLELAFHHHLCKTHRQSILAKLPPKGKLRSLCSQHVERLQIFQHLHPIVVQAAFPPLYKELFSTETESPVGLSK
# UniProt P19793: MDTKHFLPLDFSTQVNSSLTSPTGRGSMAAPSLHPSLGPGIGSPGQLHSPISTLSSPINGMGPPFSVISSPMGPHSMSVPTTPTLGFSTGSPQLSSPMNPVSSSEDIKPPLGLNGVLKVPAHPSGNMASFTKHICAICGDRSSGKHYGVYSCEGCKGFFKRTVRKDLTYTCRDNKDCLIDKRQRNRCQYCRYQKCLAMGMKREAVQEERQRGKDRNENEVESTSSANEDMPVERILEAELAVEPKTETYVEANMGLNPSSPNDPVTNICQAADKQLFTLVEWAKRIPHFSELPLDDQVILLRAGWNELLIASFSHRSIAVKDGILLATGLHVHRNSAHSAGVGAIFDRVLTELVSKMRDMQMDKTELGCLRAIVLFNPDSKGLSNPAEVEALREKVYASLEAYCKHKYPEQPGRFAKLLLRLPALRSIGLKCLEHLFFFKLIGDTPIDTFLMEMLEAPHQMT
# UniProt P10827: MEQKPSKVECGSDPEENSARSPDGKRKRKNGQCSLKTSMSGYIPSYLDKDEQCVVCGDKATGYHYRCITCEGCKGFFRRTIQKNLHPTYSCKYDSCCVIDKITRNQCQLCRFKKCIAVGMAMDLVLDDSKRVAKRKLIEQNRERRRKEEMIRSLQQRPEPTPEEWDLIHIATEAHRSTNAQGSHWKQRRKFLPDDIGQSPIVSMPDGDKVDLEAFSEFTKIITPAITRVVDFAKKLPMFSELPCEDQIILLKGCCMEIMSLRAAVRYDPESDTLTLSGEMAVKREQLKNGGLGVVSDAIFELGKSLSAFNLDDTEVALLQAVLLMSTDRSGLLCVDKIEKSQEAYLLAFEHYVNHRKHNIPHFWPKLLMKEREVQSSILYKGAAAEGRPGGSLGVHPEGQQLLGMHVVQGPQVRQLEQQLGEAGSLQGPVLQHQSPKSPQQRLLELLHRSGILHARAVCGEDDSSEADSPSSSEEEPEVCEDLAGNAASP
# UniProt P11473: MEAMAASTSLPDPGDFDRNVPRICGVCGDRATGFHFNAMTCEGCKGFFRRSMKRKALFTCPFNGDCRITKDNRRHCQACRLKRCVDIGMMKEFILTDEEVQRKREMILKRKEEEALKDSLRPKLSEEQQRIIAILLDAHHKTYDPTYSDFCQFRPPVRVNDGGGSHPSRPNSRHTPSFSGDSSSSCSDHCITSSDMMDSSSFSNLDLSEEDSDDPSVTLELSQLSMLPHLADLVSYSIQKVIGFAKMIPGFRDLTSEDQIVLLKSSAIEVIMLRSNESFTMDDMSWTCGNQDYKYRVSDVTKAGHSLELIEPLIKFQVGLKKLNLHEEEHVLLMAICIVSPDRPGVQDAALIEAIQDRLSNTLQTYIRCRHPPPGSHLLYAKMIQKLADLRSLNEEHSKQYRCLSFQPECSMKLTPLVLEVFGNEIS
# UniProt P28702: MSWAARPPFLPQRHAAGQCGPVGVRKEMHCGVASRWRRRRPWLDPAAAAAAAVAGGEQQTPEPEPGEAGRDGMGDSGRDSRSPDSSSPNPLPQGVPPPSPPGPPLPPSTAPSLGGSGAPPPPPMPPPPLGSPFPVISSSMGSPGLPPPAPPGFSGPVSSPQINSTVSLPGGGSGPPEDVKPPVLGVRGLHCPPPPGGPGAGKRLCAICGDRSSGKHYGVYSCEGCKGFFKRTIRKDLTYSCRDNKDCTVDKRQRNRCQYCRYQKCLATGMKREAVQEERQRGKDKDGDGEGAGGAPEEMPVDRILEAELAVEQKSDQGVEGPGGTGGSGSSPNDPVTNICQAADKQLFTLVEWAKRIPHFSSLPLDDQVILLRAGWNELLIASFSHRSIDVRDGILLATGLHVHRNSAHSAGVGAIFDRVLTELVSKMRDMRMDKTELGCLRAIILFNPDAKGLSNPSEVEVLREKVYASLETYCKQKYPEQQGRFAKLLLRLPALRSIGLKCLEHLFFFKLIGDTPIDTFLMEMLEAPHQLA
# UniProt P11511: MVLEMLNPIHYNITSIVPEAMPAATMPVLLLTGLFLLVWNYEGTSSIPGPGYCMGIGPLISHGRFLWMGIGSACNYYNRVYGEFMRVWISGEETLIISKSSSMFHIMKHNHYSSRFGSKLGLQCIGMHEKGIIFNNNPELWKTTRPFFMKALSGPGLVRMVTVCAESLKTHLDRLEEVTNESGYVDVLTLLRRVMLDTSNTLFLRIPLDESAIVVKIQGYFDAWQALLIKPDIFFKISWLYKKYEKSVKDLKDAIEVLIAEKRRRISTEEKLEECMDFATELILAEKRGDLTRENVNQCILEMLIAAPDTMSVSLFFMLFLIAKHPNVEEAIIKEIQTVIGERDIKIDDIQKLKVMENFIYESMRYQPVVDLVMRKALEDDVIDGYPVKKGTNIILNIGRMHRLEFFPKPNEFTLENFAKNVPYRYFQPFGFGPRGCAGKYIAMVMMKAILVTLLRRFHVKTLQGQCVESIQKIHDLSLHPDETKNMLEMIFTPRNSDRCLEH
# “And” between values parts separate entries of the source, which are not always exact repeats. Equal entries are not always repeated. Inconclusive means that the source gave no clear call. Such entries were picked first, then a sample of the others. Potencies beside an inconclusive call are fits to weak or partial responses and may not hold up. The source made the active and inactive calls. The calls were made as follows: active = hit-call score of the fitted dose curve at least 0.9, where 1 is the maximum; inconclusive = response in the unintended direction; inactive = score below 0.9.
# Tests used:
# [1] = molecular target: human Retinoic Acid Receptor gamma (RARg), RARG (gene 5916) (UniProt P13631); experiment: ATG_RARg_TRANS: Attagene TRANS-FACTORIAL HepG2 Assay for human Retinoic Acid Receptor gamma (RARg) (AID 2283009);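 as to AC50: AC50 is for reporter induction above DMSO meaning RARg activation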
# Procedure, shortened: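 Transient transfection of HepG2 with multi-reporter constructs, then 24 h chemical treatment. Total RNA isolated, reverse-transcribed, PCR-amplified, fluorescently labelled and resolved by capillary electrophoresis; activity scored as mRNA induction versus DMSO.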
# [2] = molecular target: human RAR-related Orphan Receptor beta (RORb), RORB (gene 6096) (UniProt Q92753); experiment: ATG_RORb_TRANS: Attagene TRANS-FACTORIAL HepG2 Assay for human RAR-related Orphan Receptor beta (RORb) (AID 2283010);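 as to AC50: potency for increased reporter mRNA meaning activation of RORb-Gal4 chimera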
# Procedure, shortened: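 Readout is reporter-gene mRNA induction, detected as fluorescence after RT-PCR and capillary electrophoresis, fitted for gain of signal against DMSO controls. Transiently transfected HepG2 liver cells carrying GAL4-UAS reporter constructs were treated for 24 hours.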
# [3] = molecular target: human RAR-related Orphan Receptor gamma (RORg), RORC (gene 6097) (UniProt P51449); experiment: ATG_RORg_TRANS: Attagene TRANS-FACTORIAL HepG2 Assay for human RAR-related Orphan Receptor gamma (RORg) (AID 2283011);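 as to AC50: potency for induction of reporter transcripts above DMSO so activators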
# Procedure, shortened: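 First, HepG2 liver cells were transfected with GAL4-UAS-driven reporter constructs and the RORg-Gal4 fusion. Next, they were treated with chemical for 24 h. Finally, reporter mRNA was quantified by RT-PCR and capillary electrophoresis, with upward activity fitted against DMSO.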
# [4] = molecular target: Retinoic acid receptor RXR-alpha (Homo sapiens) (UniProt P19793); experiment: ATG_RXRa_TRANS: Attagene TRANS-FACTORIAL HepG2 Assay for human Retinoid X Receptor alpha (RXRa) (AID 2283012)
# Procedure, shortened: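 Transient transfection of human HepG2 with multiple GAL4-UAS reporter constructs; 24 h compound exposure; total RNA isolated, reverse-transcribed, PCR-amplified, 6-FAM labelled, HpaI-cut, resolved by capillary electrophoresis. Positive-direction fit versus DMSO.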
# [5] = molecular target: human Thyroid Receptor alpha (THRa1), THRA (gene 7067) (UniProt P10827); experiment: ATG_THRa1_TRANS: Attagene TRANS-FACTORIAL HepG2 Assay for human Thyroid Receptor alpha (THRa1) (AID 2283014)
# Procedure, shortened: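 Reporter transcript induction, read by capillary electrophoresis of 6-FAM-labelled RT-PCR products, reflects activity of a transfected THRa1-Gal4 fusion in HepG2 liver cells. Cells were dosed for 24 h; activity was fitted in the positive direction against DMSO.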
# [6] = molecular target: human Vitamin D Receptor (VDR), VDR (gene 7421) (UniProt P11473); experiment: ATG_VDR_TRANS: Attagene TRANS-FACTORIAL HepG2 Assay for human Vitamin D Receptor (VDR) (AID 2283022)
# Procedure, shortened: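 Steps: transfect HepG2 with GAL4-UAS-driven reporter constructs; dose compounds 24 h; isolate RNA, reverse-transcribe, PCR-amplify with 6-FAM-labelled primer extension and HpaI digestion; quantify fragments by capillary electrophoresis relative to DMSO.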
# [7] = molecular target: human Retinoid X Receptor beta (RXRb), RXRB (gene 6257) (UniProt P28702); experiment: ATG_RXRb_TRANS: Attagene TRANS-FACTORIAL HepG2 Assay for human Retinoid X Receptor beta (RXRb) (AID 2283013)
# Procedure, shortened: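 Transfect HepG2 with GAL4-UAS multi-reporter constructs (chimeric NR-Gal4, TRANS format); dose compound 24 h; isolate RNA, RT-PCR, FAM primer extension, HpaI digest; quantify by capillary electrophoresis; positive direction vs DMSO.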
# [8] = molecular target: human CYP19A1, CYP19A1 (gene 1588) (UniProt P11511); experiment: NVS_ADME_hCYP19A1: NovaScreen (NVS) CYP450-related Enzyme Activity (ADME) Assay for human CYP19A1 (AID 2283098);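 also: potency for inhibitors seen as loss of fluorescent enzyme signal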
# Procedure, shortened: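 Cell-free enzyme assay with recombinant protein and a specific fluorogenic substrate, read by fluorescence intensity 0.5 h after dosing. Primary screen ran in duplicate at 10 uM; actives were retested in concentration series. Loss of signal versus acetonitrile baseline.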
smiles,measurement,setting,value
COCC1CCC(CO)CC1 (configuration not stated),outcome,[1],inactive
same,AC50,[2],inconclusive: 102 µM
same,outcome,[3],inactive
same,AC50,[4],inconclusive: 175 µM
same,AC50,[5],inconclusive: 102 µM
same,AC50,[6],inconclusive: 102 µM
CC(C)CCCCCCCCCCCCCCC(=O)O,AC50,[1],inconclusive: 100 µM
same,outcome,[2],inactive
same,outcome,[3],inactive
same,AC50,[7],active: 11.4 µM
CN(C)C(=O)Nc1ccc(Oc2ccc(Cl)cc2)cc1,AC50,[1],inconclusive: 100 µM
same,AC50,[2],inconclusive: 33.4 µM
same,AC50,[3],inconclusive: 34.8 µM
same,AC50,[7],inconclusive: 100 µM
CCOC(=O)N1CCC(=C2c3ccc(Cl)cc3CCc3cccnc32)CC1,AC50,[1],inconclusive: 11.1 µM
same,AC50,[2],inconclusive: 3.02 µM
same,AC50,[3],inconclusive: 11.1 µM
same,outcome,[4],inactive
same,AC50,[7],inconclusive: 11.1 µM
same,outcome,[6],inactive
CC(C)(C)c1cc(Cc2cc(C(C)(C)C)c(O)c(C(C)(C)C)c2)cc(C(C)(C)C)c1O,outcome,[1],inactive
same,AC50,[2],inconclusive: 100 µM
same,AC50,[3],inconclusive: 100 µM
same,AC50,[7],active: 15.7 µM
C1CCC(SSC2CCCCC2)CC1,outcome,[1],inactive
same,AC50,[2],inconclusive: 100 µM
same,AC50,[3],inconclusive: 159 µM
same,outcome,[4],inactive
same,outcome,[6],inactive
same,AC50,[8],inconclusive: 0.0598 µM
Nc1ccc(O)c(N)c1,AC50,[1],inconclusive: 185 µM
same,AC50,[2],inconclusive: 100 µM
same,AC50,[3],inconclusive: 178 µM
same,AC50,[4],inconclusive: 100 µM
same,outcome,[7],inactive
same,AC50,[6],inconclusive: 100 µM
C#CC(O)CCC (configuration not stated),AC50,[1],inconclusive: 0.687 µM
same,outcome,[2],inactive
same,AC50,[3],inconclusive: 100 µM
same,AC50,[4],inconclusive: 100 µM
same,AC50,[5],inconclusive: 19.8 µM
same,AC50,[6],inconclusive: 100 µM
CCCCOC(=O)C(C)CC (configuration not stated),AC50,[1],inconclusive: 100 µM
same,AC50,[2],inconclusive: 100 µM
same,outcome,[3],inactive
same,AC50,[4],inconclusive: 15.7 µM
same,AC50,[5],inconclusive: 3.99 µM
CCc1cc(Cc2cc(CC)cc(C(C)(C)C)c2O)c(O)c(C(C)(C)C)c1,AC50,[1],active: 9.1 µM
same,AC50,[2],inconclusive: 33.4 µM
same,AC50,[3],inconclusive: 33.4 µM
same,outcome,[4],inactive
same,AC50,[7],active: 5.71 µM
same,AC50,[6],inconclusive: 61.1 µM
CC[N+](C)(CC)CC,outcome,[1],inactive
same,AC50,[2],inconclusive: 100 µM
same,AC50,[3],inconclusive: 100 µM
same,AC50,[7],inconclusive: 1.55 µM
CCOC(F)(F)C(F)(F)C(F)(F)C(F)(F)F,AC50,[1],inconclusive: 150 µM
same,AC50,[2],inconclusive: 150 µM
same,AC50,[3],inconclusive: 150 µM
same,AC50,[7],inconclusive: 150 µM
same,AC50,[5],inconclusive: 150 µM
CCCCCCCCCCCCN1CCCCCC1=O,outcome,[1],inactive
same,AC50,[2],inconclusive: 11.1 µM
same,AC50,[3],inconclusive: 11.1 µM
same,outcome,[7],inactive
FC1(F)C=CC(F)(F)C1(F)F,AC50,[1],inconclusive: 150 µM
same,AC50,[2],inconclusive: 150 µM
same,AC50,[3],inconclusive: 150 µM
same,AC50,[4],inconclusive: 150 µM
same,AC50,[7],inconclusive: 150 µM
same,AC50,[6],inconclusive: 150 µM
Cc1cc(O)c(Cl)c(C)c1Cl,AC50,[1],inconclusive: 164 µM
same,AC50,[2],inconclusive: 100 µM
same,AC50,[3],inconclusive: 100 µM
same,AC50,[4],inconclusive: 163 µM
same,AC50,[5],inconclusive: 172 µM
same,AC50,[6],inconclusive: 162 µM
O=C(O)C(F)(F)C(F)(F)C(F)F,AC50,[1],inconclusive: 150 µM
same,AC50,[2],inconclusive: 150 µM and inconclusive: 271 µM
same,AC50,[3],inconclusive: 150 µM
same,AC50,[7],inconclusive: 0.058 µM
same,outcome,[7],inactive
same,AC50,[5],inconclusive: 150 µM
COC(=O)/C=C\C(=O)OC,AC50,[1],inconclusive: 100 µM
same,AC50,[2],inconclusive: 100 µM
same,AC50,[3],inconclusive: 100 µM
same,AC50,[4],inconclusive: 100 µM
same,outcome,[5],inactive
O=C(/C=C/C=C/c1ccc2c(c1)OCO2)N1CCCCC1,AC50,[1],inconclusive: 100 µM
same,AC50,[2],inconclusive: 100 µM
same,AC50,[3],inconclusive: 100 µM
same,AC50,[7],inconclusive: 30.6 µM
same,AC50,[5],inconclusive: 100 µM

# Part of the list above, reformatted.
smiles	measurement	setting	value
O=C(O)C(F)(F)C(F)(F)C(F)F	AC50	[2]	inconclusive: 150 µM and inconclusive: 271 µM
same	AC50	[3]	inconclusive: 150 µM
same	AC50	[7]	inconclusive: 0.058 µM
same	outcome	[7]	inactive

# Three entries from above in a different format:
smiles	measurement	setting	value
CC(C)(C)c1cc(Cc2cc(C(C)(C)C)c(O)c(C(C)(C)C)c2)cc(C(C)(C)C)c1O	AC50	[7]	active: 15.7 µM
C1CCC(SSC2CCCCC2)CC1	outcome	[1]	inactive
same	AC50	[2]	inconclusive: 100 µM
